From the supplement of paper PMC12823440, “Inhibitors supercharge kinase turnover through native proteolytic circuits” (Nature, 2025)
The list shows a part of the results. Hit calls seldom repeat between salt and free forms of one compound.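 Kinases were expressed as nanoluciferase fusions in K562 cells and luminescence was read every 4 h between 2 and 18 h as percent of control, DMSO set to 100% and a positive control to 0%. A time point counts as decreased when the signal drops significantly (2 sigma). The hit call is the authors' own, does not follow from the count of time points alone, and its rule is not shown.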

The chains behind the UniProt entries cited, without tags or fusion partners. Where a name states a change or a piece, a line headed by the entry shows the natural chain unless it says otherwise.
UniProt Q15118, whole entry, looked up: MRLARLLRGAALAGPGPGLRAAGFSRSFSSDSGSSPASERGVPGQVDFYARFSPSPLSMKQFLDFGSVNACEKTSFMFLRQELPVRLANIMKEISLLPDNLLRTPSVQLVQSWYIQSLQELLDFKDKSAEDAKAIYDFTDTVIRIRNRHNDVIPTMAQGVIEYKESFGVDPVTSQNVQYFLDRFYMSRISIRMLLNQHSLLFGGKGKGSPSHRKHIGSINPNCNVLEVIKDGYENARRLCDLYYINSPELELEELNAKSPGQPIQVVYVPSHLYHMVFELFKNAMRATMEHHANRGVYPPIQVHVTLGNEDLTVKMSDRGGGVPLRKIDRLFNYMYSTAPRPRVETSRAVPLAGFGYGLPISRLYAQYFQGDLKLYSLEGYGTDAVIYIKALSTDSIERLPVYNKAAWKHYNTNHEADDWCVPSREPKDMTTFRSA
UniProt Q9UQB9: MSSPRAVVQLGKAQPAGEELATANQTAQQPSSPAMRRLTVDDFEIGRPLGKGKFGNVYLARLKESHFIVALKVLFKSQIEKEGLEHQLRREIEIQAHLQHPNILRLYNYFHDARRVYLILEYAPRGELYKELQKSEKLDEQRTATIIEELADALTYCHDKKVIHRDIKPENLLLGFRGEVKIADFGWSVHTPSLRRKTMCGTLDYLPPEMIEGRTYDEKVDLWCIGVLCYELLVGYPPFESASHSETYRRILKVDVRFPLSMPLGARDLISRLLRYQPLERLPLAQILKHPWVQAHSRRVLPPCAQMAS
UniProt P07333, whole entry: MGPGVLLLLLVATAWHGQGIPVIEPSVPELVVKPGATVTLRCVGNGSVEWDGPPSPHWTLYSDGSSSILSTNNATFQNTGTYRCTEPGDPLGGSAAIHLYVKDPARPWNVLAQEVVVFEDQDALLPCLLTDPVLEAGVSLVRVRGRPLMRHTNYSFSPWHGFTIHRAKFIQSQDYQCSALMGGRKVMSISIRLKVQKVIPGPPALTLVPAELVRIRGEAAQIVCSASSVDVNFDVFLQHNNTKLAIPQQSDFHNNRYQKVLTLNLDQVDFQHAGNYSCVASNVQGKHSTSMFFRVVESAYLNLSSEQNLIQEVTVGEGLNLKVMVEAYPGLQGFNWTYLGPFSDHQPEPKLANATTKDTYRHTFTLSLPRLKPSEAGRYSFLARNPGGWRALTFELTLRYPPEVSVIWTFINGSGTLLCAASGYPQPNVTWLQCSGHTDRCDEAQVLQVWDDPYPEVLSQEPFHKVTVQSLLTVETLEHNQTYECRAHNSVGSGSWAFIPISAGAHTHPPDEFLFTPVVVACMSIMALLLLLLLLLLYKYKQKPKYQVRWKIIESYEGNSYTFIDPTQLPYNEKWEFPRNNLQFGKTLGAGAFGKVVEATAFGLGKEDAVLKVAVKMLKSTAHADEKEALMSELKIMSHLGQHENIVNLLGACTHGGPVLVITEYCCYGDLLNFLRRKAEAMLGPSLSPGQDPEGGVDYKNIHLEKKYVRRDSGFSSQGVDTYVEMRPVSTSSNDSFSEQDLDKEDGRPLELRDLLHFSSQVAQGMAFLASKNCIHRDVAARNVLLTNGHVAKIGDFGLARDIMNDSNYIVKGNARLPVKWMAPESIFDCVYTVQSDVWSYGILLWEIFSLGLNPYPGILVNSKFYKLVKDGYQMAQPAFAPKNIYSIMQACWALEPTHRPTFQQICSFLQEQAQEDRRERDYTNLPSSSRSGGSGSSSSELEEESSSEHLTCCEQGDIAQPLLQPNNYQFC
UniProt P48730: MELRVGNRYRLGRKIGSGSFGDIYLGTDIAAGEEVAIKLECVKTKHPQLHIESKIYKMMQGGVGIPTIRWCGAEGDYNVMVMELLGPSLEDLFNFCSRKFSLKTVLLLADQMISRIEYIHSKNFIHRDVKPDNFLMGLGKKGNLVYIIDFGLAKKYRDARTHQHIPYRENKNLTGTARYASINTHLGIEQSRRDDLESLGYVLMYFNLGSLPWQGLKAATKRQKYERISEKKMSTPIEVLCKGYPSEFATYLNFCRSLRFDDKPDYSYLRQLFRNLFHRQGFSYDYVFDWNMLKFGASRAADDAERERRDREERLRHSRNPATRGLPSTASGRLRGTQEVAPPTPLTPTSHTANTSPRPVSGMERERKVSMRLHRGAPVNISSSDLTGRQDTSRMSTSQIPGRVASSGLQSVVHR
UniProt P23458: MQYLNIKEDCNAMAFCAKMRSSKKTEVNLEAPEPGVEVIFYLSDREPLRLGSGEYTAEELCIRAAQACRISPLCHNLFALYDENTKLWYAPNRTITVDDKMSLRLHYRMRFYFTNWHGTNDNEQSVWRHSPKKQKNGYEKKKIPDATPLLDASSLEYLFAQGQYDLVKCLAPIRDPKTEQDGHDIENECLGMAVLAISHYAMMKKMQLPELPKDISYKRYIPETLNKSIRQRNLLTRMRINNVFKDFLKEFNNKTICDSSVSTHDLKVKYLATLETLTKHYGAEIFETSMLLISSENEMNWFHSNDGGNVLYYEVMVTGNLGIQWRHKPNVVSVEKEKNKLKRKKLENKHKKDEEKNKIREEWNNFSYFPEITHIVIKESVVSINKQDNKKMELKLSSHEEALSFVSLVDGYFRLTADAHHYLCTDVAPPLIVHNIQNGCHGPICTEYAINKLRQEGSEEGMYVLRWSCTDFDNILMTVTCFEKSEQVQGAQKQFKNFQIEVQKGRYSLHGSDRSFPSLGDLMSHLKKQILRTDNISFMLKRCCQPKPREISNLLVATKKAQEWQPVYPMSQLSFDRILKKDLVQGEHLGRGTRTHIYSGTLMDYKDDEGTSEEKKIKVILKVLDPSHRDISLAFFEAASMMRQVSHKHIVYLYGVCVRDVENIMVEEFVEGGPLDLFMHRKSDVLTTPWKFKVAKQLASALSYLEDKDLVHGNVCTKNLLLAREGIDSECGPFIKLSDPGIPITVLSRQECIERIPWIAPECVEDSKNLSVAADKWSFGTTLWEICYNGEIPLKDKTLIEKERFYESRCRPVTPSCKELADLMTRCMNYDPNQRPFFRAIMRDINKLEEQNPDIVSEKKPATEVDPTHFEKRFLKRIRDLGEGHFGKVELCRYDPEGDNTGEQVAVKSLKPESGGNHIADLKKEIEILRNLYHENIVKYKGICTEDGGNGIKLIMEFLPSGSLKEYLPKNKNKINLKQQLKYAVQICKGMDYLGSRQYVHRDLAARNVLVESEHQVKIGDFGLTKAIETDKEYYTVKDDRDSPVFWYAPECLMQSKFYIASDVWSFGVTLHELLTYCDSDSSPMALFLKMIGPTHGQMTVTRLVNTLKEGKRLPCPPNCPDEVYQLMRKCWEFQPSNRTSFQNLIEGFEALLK
UniProt P43403: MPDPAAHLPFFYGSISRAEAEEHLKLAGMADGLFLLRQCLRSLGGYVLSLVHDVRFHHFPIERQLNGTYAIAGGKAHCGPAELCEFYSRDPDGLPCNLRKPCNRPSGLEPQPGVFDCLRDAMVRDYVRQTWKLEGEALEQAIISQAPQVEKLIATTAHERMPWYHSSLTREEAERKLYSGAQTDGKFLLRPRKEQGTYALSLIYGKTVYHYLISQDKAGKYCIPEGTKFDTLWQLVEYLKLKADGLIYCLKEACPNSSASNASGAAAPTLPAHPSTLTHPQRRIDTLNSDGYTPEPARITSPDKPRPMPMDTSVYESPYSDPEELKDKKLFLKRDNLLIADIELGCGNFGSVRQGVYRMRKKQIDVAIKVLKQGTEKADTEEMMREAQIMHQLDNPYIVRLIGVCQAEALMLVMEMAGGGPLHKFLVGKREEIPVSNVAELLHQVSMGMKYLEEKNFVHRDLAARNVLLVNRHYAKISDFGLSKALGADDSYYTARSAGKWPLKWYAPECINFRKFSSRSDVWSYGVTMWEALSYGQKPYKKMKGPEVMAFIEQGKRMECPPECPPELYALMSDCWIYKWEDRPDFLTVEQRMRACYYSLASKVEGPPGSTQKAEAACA
UniProt P06239: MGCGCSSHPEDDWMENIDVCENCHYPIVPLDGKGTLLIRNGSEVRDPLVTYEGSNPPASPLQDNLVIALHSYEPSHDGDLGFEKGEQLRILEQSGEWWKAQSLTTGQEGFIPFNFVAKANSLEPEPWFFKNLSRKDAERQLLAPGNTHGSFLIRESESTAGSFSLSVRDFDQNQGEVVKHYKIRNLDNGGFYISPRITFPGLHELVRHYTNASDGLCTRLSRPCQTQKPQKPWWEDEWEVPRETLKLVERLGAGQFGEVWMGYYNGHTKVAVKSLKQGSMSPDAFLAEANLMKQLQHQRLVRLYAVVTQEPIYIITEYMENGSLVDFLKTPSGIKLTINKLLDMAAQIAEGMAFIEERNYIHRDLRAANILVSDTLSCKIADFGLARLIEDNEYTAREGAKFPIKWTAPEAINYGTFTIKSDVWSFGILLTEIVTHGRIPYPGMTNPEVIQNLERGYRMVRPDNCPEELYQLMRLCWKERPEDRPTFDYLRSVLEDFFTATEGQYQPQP
UniProt P36888, whole entry: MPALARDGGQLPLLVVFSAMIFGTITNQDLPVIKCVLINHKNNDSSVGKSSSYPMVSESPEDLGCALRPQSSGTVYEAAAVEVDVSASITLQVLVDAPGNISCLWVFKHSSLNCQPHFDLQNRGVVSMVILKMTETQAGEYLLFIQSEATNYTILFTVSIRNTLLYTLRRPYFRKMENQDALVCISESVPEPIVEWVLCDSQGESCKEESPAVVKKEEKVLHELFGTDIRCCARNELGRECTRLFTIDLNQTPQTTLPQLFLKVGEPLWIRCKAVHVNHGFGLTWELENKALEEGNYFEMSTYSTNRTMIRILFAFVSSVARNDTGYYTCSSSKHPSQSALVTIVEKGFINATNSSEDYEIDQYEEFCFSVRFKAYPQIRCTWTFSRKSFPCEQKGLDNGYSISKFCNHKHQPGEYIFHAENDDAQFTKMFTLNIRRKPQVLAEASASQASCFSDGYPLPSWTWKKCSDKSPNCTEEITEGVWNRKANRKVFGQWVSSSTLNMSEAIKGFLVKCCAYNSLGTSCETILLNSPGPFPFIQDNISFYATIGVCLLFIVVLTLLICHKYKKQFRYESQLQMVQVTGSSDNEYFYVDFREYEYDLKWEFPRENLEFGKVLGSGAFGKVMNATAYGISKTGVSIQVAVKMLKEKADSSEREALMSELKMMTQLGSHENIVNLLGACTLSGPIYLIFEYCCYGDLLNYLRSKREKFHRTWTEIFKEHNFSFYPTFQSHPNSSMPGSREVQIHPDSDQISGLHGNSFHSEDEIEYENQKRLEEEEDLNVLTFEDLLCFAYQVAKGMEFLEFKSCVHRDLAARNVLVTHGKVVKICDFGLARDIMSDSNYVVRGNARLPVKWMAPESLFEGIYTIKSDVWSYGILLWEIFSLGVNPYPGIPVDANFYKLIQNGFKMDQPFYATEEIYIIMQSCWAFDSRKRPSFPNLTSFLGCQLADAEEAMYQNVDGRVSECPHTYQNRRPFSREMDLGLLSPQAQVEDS
UniProt Q15131: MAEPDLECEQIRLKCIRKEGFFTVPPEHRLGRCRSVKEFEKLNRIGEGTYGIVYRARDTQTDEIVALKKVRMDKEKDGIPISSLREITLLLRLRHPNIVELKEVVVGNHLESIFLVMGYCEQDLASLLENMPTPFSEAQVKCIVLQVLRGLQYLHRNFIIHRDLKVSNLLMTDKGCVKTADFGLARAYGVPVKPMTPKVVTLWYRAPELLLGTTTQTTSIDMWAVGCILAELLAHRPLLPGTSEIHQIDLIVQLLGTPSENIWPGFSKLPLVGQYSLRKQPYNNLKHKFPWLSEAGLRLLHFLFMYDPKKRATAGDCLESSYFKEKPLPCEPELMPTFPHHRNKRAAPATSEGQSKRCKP
UniProt P15056, whole entry, looked up: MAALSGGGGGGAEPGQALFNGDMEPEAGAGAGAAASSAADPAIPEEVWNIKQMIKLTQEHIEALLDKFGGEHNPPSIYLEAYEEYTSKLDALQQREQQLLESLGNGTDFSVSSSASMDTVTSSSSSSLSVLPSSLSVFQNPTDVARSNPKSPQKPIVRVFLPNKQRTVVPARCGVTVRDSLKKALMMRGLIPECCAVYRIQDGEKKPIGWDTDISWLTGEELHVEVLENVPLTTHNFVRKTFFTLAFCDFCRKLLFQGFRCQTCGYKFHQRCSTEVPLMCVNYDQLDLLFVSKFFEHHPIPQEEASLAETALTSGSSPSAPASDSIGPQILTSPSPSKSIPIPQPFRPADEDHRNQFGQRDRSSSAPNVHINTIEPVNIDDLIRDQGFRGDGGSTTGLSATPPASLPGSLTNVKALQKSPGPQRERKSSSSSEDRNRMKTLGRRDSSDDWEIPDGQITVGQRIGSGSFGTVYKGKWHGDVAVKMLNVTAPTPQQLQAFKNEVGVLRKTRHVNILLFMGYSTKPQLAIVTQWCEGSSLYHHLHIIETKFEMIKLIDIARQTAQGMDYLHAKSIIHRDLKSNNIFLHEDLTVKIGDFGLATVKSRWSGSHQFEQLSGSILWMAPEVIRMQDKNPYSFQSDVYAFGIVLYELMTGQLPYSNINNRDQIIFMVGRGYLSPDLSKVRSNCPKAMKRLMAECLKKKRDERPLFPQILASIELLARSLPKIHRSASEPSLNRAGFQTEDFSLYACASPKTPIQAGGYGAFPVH

Legend:
Assay in all cases: number of time points (of 5) at which kinase-Nluc abundance scored as decreased, DMSO-normalised (count); higher = more persistent destabilization
Settings in all cases: 10 µM; K562; 2-18 h
[1] = compound: O=C(Nc1ccncc1)Nc1ccc(-c2nc(N3CCOCC3)nc(N3C4CCC3COC4)n2)cc1
Larotrectinib sulfate = compound: O=C(Nc1cnn2ccc(N3CCC[C@@H]3c3cc(F)ccc3F)nc12)N1CC[C@H](O)C1 [Larotrectinib sulfate]
Larotrectinib = compound: O=C(Nc1cnn2ccc(N3CCC[C@@H]3c3cc(F)ccc3F)nc12)N1CC[C@H](O)C1 [Larotrectinib]
[2] = compound: O=C(O)c1ccc2c(c1)nc(Nc1cccc(Cl)c1)c1ccncc12 [Silmitasertib (sodium salt)]
Silmitasertib = compound: O=C(O)c1ccc2c(c1)nc(Nc1cccc(Cl)c1)c1ccncc12 [Silmitasertib]
[3] = compound: O=C(c1ccc(F)c(F)c1Nc1ccc(I)cc1F)N1CC(O)([C@@H]2CCCCN2)C1 [Cobimetinib (hemifumarate)]
Cobimetinib = compound: O=C(c1ccc(F)c(F)c1Nc1ccc(I)cc1F)N1CC(O)([C@@H]2CCCCN2)C1 [Cobimetinib]
[4] = compound: O=C(c1nn(-c2ccc(CN3CCOCC3)cc2)c2c1CS(=O)(=O)c1c(F)cccc1-2)N1CCOCC1
(E/Z)-GSK-3β inhibitor 1 = compound: O=C1Nc2ccccc2/C1=C/c1ccccn1 [(E/Z)-GSK-3β inhibitor 1]
GSK-3β inhibitor 1 = compound: O=C1Nc2ccccc2/C1=C/c1ccccn1 [GSK-3β inhibitor 1]

| Target | number of time points [1] | number of time points (Larotrectinib sulfate) | number of time points (Larotrectinib) | number of time points [2] | number of time points (Silmitasertib) | number of time points [3] | number of time points (Cobimetinib) | number of time points [4] | number of time points ((E/Z)-GSK-3β inhibitor 1) | number of time points (GSK-3β inhibitor 1) |
| --- | --- | --- | --- | --- | --- | --- | --- | --- | --- | --- |
| EGFR_T790M (UniProt P00533) | 0 | 0 | 0 | 2 | 0 | 0 | 0 | 0 | 0 | 0 |
| ERBB4_R711C (clone: ERBB4_mut) (UniProt Q15303) | 0 | 0 | 0 | 3 | 0 | 0 | 1 | 0 | 0 | 0 |
| LYN (UniProt P07948) | 0 | 0 | 0 | 2 | 0 | 0 | 0 | 0 | 0 | 0 |
| BRAF_V600E | 1 | 0 | 0 | 3 | 0 | 3 | 3 | 0 | 0 | 0 |
| STK38 (UniProt Q15208) | 3 | 0 | 0 | 0 | 0 | 1 | 1 | 0 | 0 | 0 |
| CDK5 (UniProt Q00535) | 0 | 0 | 0 | 0 | 0 | 0 | 0 | 0 | 0 | 0 |
| SPHK1 (UniProt Q9NYA1) | 0 | 0 | 0 | 0 | 0 | 0 | 0 | 0 | 0 | 0 |
| SRC (UniProt P12931) | 0 | 0 | 0 | 0 | 0 | 0 | 0 | 0 | 0 | 0 |
| FGFR3 (UniProt P22607) | 0 | 0 | 0 | 0 | 0 | 0 | 0 | 0 | 0 | 0 |
| EGFR_L858R (UniProt P00533) | 0 | 0 | 0 | 2 | 0 | 0 | 1 | 0 | 0 | 0 |
| YES1 (UniProt P07947) | 0 | 0 | 0 | 1 | 0 | 0 | 0 | 0 | 0 | 0 |
| PDK1 (UniProt Q15118) | 0 | 0 | 0 | 0 | 0 | 0 | 0 | 0 | 0 | 0 |
| EGFR_L861Q (UniProt P00533) | 0 | 0 | 0 | 3 | 0 | 2 | 3 | 0 | 2 | 0 |
| PIK4CA (UniProt P42356) | 0 | 0 | 0 | 2 | 0 | 0 | 1 | 0 | 0 | 0 |
| ULK3 (UniProt Q6PHR2) | 0 | 0 | 0 | 3 | 0 | 2 | 1 | 0 | 0 | 0 |
| AURKC (UniProt Q9UQB9) | 0 | 0 | 0 | 0 | 0 | 0 | 0 | 0 | 0 | 0 |
| AKT1 (UniProt P31749) | 0 | 0 | 0 | 0 | 0 | 0 | 0 | 0 | 0 | 0 |
| PIK4CB (UniProt Q9UBF8) | 0 | 0 | 0 | 2 | 0 | 2 | 1 | 0 | 0 | 0 |
| CSF1R (UniProt P07333) | 4 | 0 | 0 | 1 | 0 | 0 | 0 | 0 | 0 | 0 |
| ARAF (UniProt P10398) | 0 | 0 | 0 | 0 | 0 | 0 | 0 | 0 | 0 | 0 |
| CSNK1D (UniProt P48730) | 4 | 0 | 0 | 0 | 0 | 0 | 1 | 0 | 0 | 0 |
| JAK1 (UniProt P23458) | 0 | 0 | 0 | 3 | 0 | 0 | 0 | 0 | 0 | 0 |
| PLK1 (UniProt P53350) | 0 | 0 | 0 | 0 | 0 | 1 | 2 | 0 | 0 | 0 |
| ZAP70 (UniProt P43403) | 0 | 0 | 0 | 0 | 0 | 0 | 0 | 0 | 0 | 0 |
| GSK3A (UniProt P49840) | 0 | 0 | 0 | 0 | 0 | 0 | 0 | 0 | 0 | 0 |

| Target | number of time points [1] | number of time points (Larotrectinib sulfate) | number of time points (Larotrectinib) | number of time points [2] | number of time points (Silmitasertib) | number of time points [3] | number of time points (Cobimetinib) | number of time points [4] | number of time points ((E/Z)-GSK-3β inhibitor 1) | number of time points (GSK-3β inhibitor 1) |
| --- | --- | --- | --- | --- | --- | --- | --- | --- | --- | --- |
| EGFR_G719S (UniProt P00533) | 0 | 0 | 0 | 2 | 4 | 2 | 2 | 0 | 0 | 0 |
| LIMK2 (UniProt P53671) | 0 | 0 | 0 | 0 | 0 | 1 | 0 | 0 | 0 | 0 |
| CAMK2G (UniProt Q13555) | 0 | 0 | 0 | 1 | 0 | 0 | 1 | 0 | 0 | 0 |
| LCK (UniProt P06239) | 0 | 0 | 0 | 0 | 0 | 0 | 0 | 0 | 0 | 0 |
| AURKA (UniProt O14965) | 4 | 0 | 0 | 0 | 0 | 3 | 1 | 0 | 0 | 0 |
| FGR (UniProt P09769) | 0 | 0 | 0 | 0 | 0 | 0 | 0 | 0 | 0 | 0 |
| RAF1 (UniProt P04049) | 4 | 0 | 0 | 2 | 0 | 3 | 4 | 0 | 1 | 0 |
| FLT3 (UniProt P36888) | 0 | 0 | 0 | 3 | 0 | 0 | 1 | 0 | 0 | 0 |
| CDK10 (UniProt Q15131) | 0 | 0 | 0 | 0 | 0 | 0 | 0 | 0 | 0 | 0 |
| RAF1_S257L (clone: RAF1_mut) (UniProt P04049) | 0 | 0 | 0 | 3 | 0 | 4 | 5 | 0 | 0 | 0 |
| BRAF (UniProt P15056) | 2 | 0 | 0 | 1 | 3 | 0 | 0 | 0 | 0 | 0 |
| RIPK2 (UniProt O43353) | 0 | 0 | 0 | 3 | 0 | 2 | 2 | 0 | 0 | 0 |
| LMTK2 (UniProt Q8IWU2) | 0 | 0 | 0 | 0 | 0 | 0 | 0 | 0 | 0 | 0 |
| HER2 (UniProt P04626) | 0 | 0 | 0 | 0 | 3 | 0 | 0 | 0 | 0 | 0 |
| MAPKAPK2 (UniProt P49137) | 0 | 0 | 0 | 0 | 0 | 0 | 0 | 0 | 0 | 0 |
| PDGFRB (UniProt P09619) | 0 | 0 | 0 | 3 | 0 | 0 | 0 | 0 | 0 | 0 |
| INSRR (UniProt P14616) | 0 | 0 | 0 | 3 | 0 | 2 | 1 | 0 | 0 | 0 |
| BLK (UniProt P51451) | 0 | 0 | 0 | 0 | 0 | 0 | 0 | 0 | 0 | 0 |
| AURKB (UniProt Q96GD4) | 3 | 0 | 0 | 0 | 0 | 0 | 1 | 0 | 0 | 0 |
| FYN (UniProt P06241) | 1 | 0 | 0 | 2 | 0 | 0 | 0 | 0 | 0 | 0 |
| IRAK3 (UniProt Q9Y616) | 0 | 0 | 0 | 0 | 0 | 1 | 0 | 0 | 0 | 0 |
| PBK (UniProt Q96KB5) | 0 | 0 | 0 | 0 | 0 | 0 | 0 | 0 | 0 | 0 |
| BTK (UniProt Q06187) | 0 | 0 | 0 | 0 | 2 | 0 | 0 | 0 | 0 | 0 |
| DYRK1B (UniProt Q9Y463) | 0 | 0 | 0 | 0 | 0 | 0 | 1 | 0 | 0 | 0 |

2 consecutive entries from above:

| Target | number of time points [1] | number of time points (Larotrectinib sulfate) | number of time points (Larotrectinib) | number of time points [2] | number of time points (Silmitasertib) | number of time points [3] | number of time points (Cobimetinib) | number of time points [4] | number of time points ((E/Z)-GSK-3β inhibitor 1) | number of time points (GSK-3β inhibitor 1) |
| --- | --- | --- | --- | --- | --- | --- | --- | --- | --- | --- |
| BRAF (UniProt P15056) | 2 | 0 | 0 | 1 | 3 | 0 | 0 | 0 | 0 | 0 |
| RIPK2 (UniProt O43353) | 0 | 0 | 0 | 3 | 0 | 2 | 2 | 0 | 0 | 0 |
